Data: PubChem BioAssay AID256 (DTP/NCI, 2004)
The list shows only some results of the screen, not a fair sample: it gathers tests that were run many times, whatever their T/C, doses with no T/C, and many T/C values between a quarter and a half above the control. Further doses and runs are listed elsewhere. T/C gives the treated animals as a percentage of the vehicle group. Some entries give survivors of the animals treated and no T/C: the source files T/C as zero there, which appears to mark a toxic dose or a test without result, not a measured value. Some doses without a T/C left all or most animals alive at the check, yet need not have been tolerated: survival well below the control is almost never listed, so the zero probably covers shortened survival too. Counts of survivors are from the toxicity check (mostly the fifth day) where no day follows; animals may have died later. Schedules are NCI's codes, taken here to give the interval after Q, in days (D) or hours (H), and the number of doses after X. For survival time, the PubChem record calls one and a half times the control and up active, and a quarter to a half above the control has no call in these data; cut-offs in other NCI protocols can differ. Some entries hold several experiments; their values stand side by side, smallest first.

System: CD2F1 mice, L1210 leukemia ip, survival T/C
Assay: NCI In Vivo Anticancer Drug Screen. Data for tumor model L1210 Leukemia (intraperitoneal) in CD2F1 (CDF1) mice
Settings: higher T/C = longer survival
Method in brief: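 Compound-dosed mice with transplantable tumor versus matched vehicle controls; endpoint ratio T/C reported.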

[1] = T/C endpoint: mean survival time, dose: 100.0 mg/kg/injection, schedule: Q04DX003 (ip), vehicle: saline with Tween-80
[2] = T/C endpoint: mean survival time, dose: 200.0 mg/kg/injection, schedule: Q01DX009 (ip), vehicle: saline with Tween-80
[3] = T/C endpoint: mean survival time, dose: 400.0 mg/kg/injection, schedule: Q04DX003 (ip), vehicle: saline with Tween-80
[4] = T/C endpoint: mean survival time, dose: 100.0 mg/kg/injection, schedule: Q01DX009 (ip), vehicle: saline with Tween-80
[5] = T/C endpoint: mean survival time, dose: 150.0 mg/kg/injection, schedule: Q01DX001 (ip), vehicle: other
[6] = T/C endpoint: mean survival time, dose: 300.0 mg/kg/injection, schedule: Q01DX001 (ip), vehicle: other
[7] = T/C endpoint: mean survival time, dose: 400.0 mg/kg/injection, schedule: Q01DX001 (ip), vehicle: saline with Tween-80
[8] = T/C endpoint: mean survival time, dose: 200.0 mg/kg/injection, schedule: Q04DX003 (ip), vehicle: saline with Tween-80
[9] = T/C endpoint: mean survival time, dose: 100.0 mg/kg/injection, schedule: Q04DX002 (ip), vehicle: saline
[10] = T/C endpoint: mean survival time, dose: 200.0 mg/kg/injection, schedule: Q04DX002 (ip), vehicle: saline
[11] = T/C endpoint: mean survival time, dose: 400.0 mg/kg/injection, schedule: Q04DX002 (ip), vehicle: saline
[12] = T/C endpoint: mean survival time, dose: 100.0 mg/kg/injection, schedule: Q01DX009 (ip), vehicle: saline
[13] = T/C endpoint: mean survival time, dose: 400.0 mg/kg/injection, schedule: Q01DX009 (ip), vehicle: saline with Tween-80
[14] = T/C endpoint: mean survival time, dose: 6.25 mg/kg/injection, schedule: Q01DX009 (ip), vehicle: saline with Tween-80
[15] = T/C endpoint: mean survival time, dose: 12.5 mg/kg/injection, schedule: Q01DX009 (ip), vehicle: saline with Tween-80

For `CC(C(=O)c1ccccc1)C(N[N+](C)(C)C)c1ccccc1` (stereo not given), the survivor count (T/C endpoint: mean survival time, dose: 50.0 mg/kg/injection, schedule: Q04DX003 (ip), vehicle: saline with Tween-80) was 0 of 3 and the survivor count [1] was 0 of 3.

In the case of `COc1cc(C(=O)c2cc3c(cc2C)OCO3)cc(OC)c1OC`, the T/C (T/C endpoint: mean survival time, dose: 100.0 mg/kg/injection, schedule: Q01DX009 (ip), vehicle: Klucel (hydroxypropylcellulose) (HPC)) is reported as 129 % of control and the survivor count (T/C endpoint: mean survival time, dose: 200.0 mg/kg/injection, schedule: Q01DX009 (ip), vehicle: Klucel (hydroxypropylcellulose) (HPC)) is reported as 4 of 6.

In the case of `COc1ccc(C2(C(=O)O)CC(C)=C(C)CC2C(=O)O)cc1` (stereo not given), the survivor count [2] is reported as 3 of 6 and the survivor count [3] is reported as 1 of 6.

For `NC(=Nc1ccccc1)Nc1ccccc1`, the survivor count [4] was 1 of 3 and the survivor count [2] was 0 of 3.

For `CCOP(=O)(OCC)C1=C(P(=O)(OCC)OCC)C(F)(F)C(F)(F)C1(F)F`, the survivor count [5] was 0 of 6 and the survivor count [6] was 0 of 6.

For `CC(C)C(O)C(C)(C)c1nc2ccccc2[nH]1` (stereo not given), the survivor count [7] was 0 of 3.

`CN1C(=O)C=CC1=O` was tested, and the survivor count (T/C endpoint: mean survival time, dose: 8.0 mg/kg/injection, schedule: Q01DX009 (ip), vehicle: saline) was 0 of 6.

With `CC12CCC(C(=O)C1)C1(C)CCCC(=O)C21` (stereo not given) the survivor count [5] was 3 of 6 and the survivor count [6] was 0 of 6.

`Clc1ccc2[nH]c3nc4ccccc4nc3c2c1` was tested, and the survivor count (T/C endpoint: mean survival time, dose: 400.0 mg/kg/injection, schedule: Q01DX009 (ip), vehicle: saline) was 4 of 6.

For `CCNC(=O)OCC1C2=C(C(=O)C(C)=C(N)C2=O)N2CC3C(N3C)C12OC` (stereo not given), the T/C (T/C endpoint: mean survival time, dose: 200.0 mg/kg/injection, schedule: Q01DX001 (ip), vehicle: carboxymethylcellulose (CMC)) was 130 % of control.

For `CC1CC(C)(C)N=C(CCCCCCl)O1` (stereo not given), the survivor count [7] was 0 of 6.

With `COC(=O)CC/C=C\Cc1c(OC)c(C)c2c(c1OC=O)C(=O)OC2` the T/C (T/C endpoint: mean survival time, dose: 400.0 mg/kg/injection, schedule: Q04DX002 (ip), vehicle: saline with Tween-80) was 133 % of control and the T/C (T/C endpoint: median survival time, dose: 400.0 mg/kg/injection, schedule: Q04DX002 (ip), vehicle: saline with Tween-80) was 131 % of control.

With `Cn1c(=O)[nH]c2c(nc(-c3ccc4c(c3)OCO4)n2C)c1=O` the survivor count (T/C endpoint: mean survival time, dose: 125.0 mg/kg/injection, schedule: Q01DX005 (ip), vehicle: other) was 3 of 3.

For `CC(=O)c1ccc[n+](CCc2c[nH]c3ccccc23)c1`, the survivor count [1] was 4 of 6, the survivor count [8] was 0 of 6 and the survivor count [3] was 0 of 6.

For `c1ccc(Oc2ccc(-c3ccc(Oc4ccccc4)cc3)cc2)cc1`, the survivor count [1] was 6 of 6.

`CC(=O)Nc1ccc(Cc2cc(=O)[nH]c(=O)[nH]2)cc1` was tested, and the survivor count (T/C endpoint: mean survival time, dose: 75.0 mg/kg/injection, schedule: Q01DX001 (ip), vehicle: saline with Tween-80) was 3 of 6, the survivor count (T/C endpoint: mean survival time, dose: 150.0 mg/kg/injection, schedule: Q01DX001 (ip), vehicle: saline with Tween-80) was 0 of 6 and the survivor count (T/C endpoint: mean survival time, dose: 300.0 mg/kg/injection, schedule: Q01DX001 (ip), vehicle: saline with Tween-80) was 3 of 6.

`CCCCCCCCN(C)N=Nc1ccccc1` was tested, and the T/C (T/C endpoint: mean survival time, dose: 118.0 mg/kg/injection, schedule: Q01DX009 (ip), vehicle: Klucel (hydroxypropylcellulose) (HPC)) was 128 % of control and the survivor count (T/C endpoint: mean survival time, dose: 400.0 mg/kg/injection, schedule: Q01DX009 (ip), vehicle: Klucel (hydroxypropylcellulose) (HPC)) was 3 of 6.

`O=C(CCCCC(=O)Nc1ccc(C2=NCCN2)cc1)Nc1ccc(C2=NCCN2)cc1` was tested, and the T/C (T/C endpoint: mean survival time, dose: 37.5 mg/kg/injection, schedule: Q01DX009 (ip), vehicle: saline) was 147 % of control.

In the case of `NC(=S)N/N=C\c1ncccc1O`, the T/C (T/C endpoint: mean survival time, dose: 3.13 mg/kg/injection, schedule: Q03HX024 (ip), vehicle: saline) is reported as 132 % of control, the T/C (T/C endpoint: mean survival time, dose: 6.25 mg/kg/injection, schedule: Q03HX024 (ip), vehicle: saline) is reported as 140 % of control and the T/C (T/C endpoint: mean survival time, dose: 12.5 mg/kg/injection, schedule: Q03HX024 (ip), vehicle: saline) is reported as 147 and 148 % of control. For the same compound, the survivor count (T/C endpoint: mean survival time, dose: 50.0 mg/kg/injection, schedule: Q03HX024 (ip), vehicle: saline) was 3 of 6.

`CCC(CCC(C)C1CCC2C3CC=C4CC(O)CCC4(C)C3CCC12C)C(C)C` (stereo not given) (tested in a mixture with another compound) was tested, and the survivor count (T/C endpoint: mean survival time, dose: 50.0 mg/kg/injection, schedule: Q01DX009 (ip), vehicle: acetone) was 5 of 6.

With `Cc1ccccc1CC#N` the survivor count (T/C endpoint: mean survival time, dose: 50.0 mg/kg/injection, schedule: Q04DX002 (ip), vehicle: saline) was 0 of 3, the survivor count [9] was 0 of 3 and the survivor count [10] was 0 of 3. The survivor count [11] was 0 of 3.

With `CCN1CCCC(Nc2nc(Nc3ccc(Cl)c(Cl)c3)nc3ccc(Cl)cc23)C1` (stereo not given) the survivor count [3] was 0 of 6.

With `COc1ccc(C=C(C(=O)CCN(C)C)C(=O)CCN(C)C)cc1` the survivor count (T/C endpoint: median survival time, dose: 400.0 mg/kg/injection, schedule: Q01DX005 (ip), vehicle: saline) was 2 of 6.

`C#CC(C)O` (stereo not given) was tested, and the survivor count [4] was 1 of 6, the survivor count [12] was 0 of 6 and the survivor count [2] was 0 of 6. For the same compound, the survivor count [13] was 0 of 6.

With `[CH3][Sn]([CH3])([CH3])[CH2]CCBr` the survivor count (T/C endpoint: mean survival time, dose: 1.56 mg/kg/injection, schedule: Q01DX009 (ip), vehicle: saline) was 0 of 3, the survivor count [14] was 2 of 3 and the survivor count [15] was 1 of 3. The survivor count (T/C endpoint: mean survival time, dose: 25.0 mg/kg/injection, schedule: Q01DX009 (ip), vehicle: saline with Tween-80) was 0 of 3, the survivor count [12] was 3 of 3 and the survivor count (T/C endpoint: mean survival time, dose: 200.0 mg/kg/injection, schedule: Q01DX009 (ip), vehicle: saline) was 0 of 3.

For `C=CC1(C)CCN=C(CCN2CCCCC2)O1` (stereo not given), the survivor count (T/C endpoint: mean survival time, dose: 400.0 mg/kg/injection, schedule: Q01DX001 (ip), vehicle: saline sonified) was 0 of 6.

In the case of `COc1ccc(OC)c(C(=O)C[n+]2ccccc2)c1`, the survivor count [1] is reported as 6 of 6, the survivor count [8] is reported as 1 of 6 and the survivor count [3] is reported as 1 of 6.

For `CC1(C)CCC(C#N)=C1N`, the survivor count [1] was 4 of 6, the survivor count [8] was 0 of 6 and the survivor count [3] was 0 of 6.

`CCN(CC)P(=O)(NCCCl)OC` (stereo not given) was tested, and the T/C (T/C endpoint: mean survival time, dose: 200.0 mg/kg/injection, schedule: Q01DX009 (ip), vehicle: DMSO) was 133 % of control and the survivor count (T/C endpoint: mean survival time, dose: 400.0 mg/kg/injection, schedule: Q01DX009 (ip), vehicle: DMSO) was 1 of 3.

For `C[N+]1(C)CCC(=O)CC1`, the survivor count [2] was 1 of 6 and the survivor count [13] was 0 of 6.

For `CCCCOC(=O)CCl`, the survivor count (T/C endpoint: mean survival time, dose: 400.0 mg/kg/injection, schedule: Q01DX001 (ip), vehicle: saline) was 1 of 4.

In the case of `CCCCS(=O)(=O)F`, the survivor count [9] is reported as 1 of 3.

For `COc1ccc(-c2nccc3cc(OC)c(OC)cc23)cc1OC`, the survivor count (T/C endpoint: mean survival time, dose: 100.0 mg/kg/injection, schedule: Q01DX009 (ip), vehicle: water) was 3 of 6 and the survivor count (T/C endpoint: mean survival time, dose: 200.0 mg/kg/injection, schedule: Q01DX009 (ip), vehicle: water) was 3 of 6.

With `C[CH2][Pb]([CH2]C)([CH2]C)[O]C(=O)c1ccc2ccccc2n1` the survivor count (T/C endpoint: mean survival time, dose: 3.13 mg/kg/injection, schedule: Q01DX009 (ip), vehicle: saline with Tween-80) was 6 of 6, the survivor count [14] was 3 of 6 and the survivor count [15] was 0 of 6.

For `CC1(C)CN(c2ccccc2)N(CO)C1=O`, the survivor count (T/C endpoint: mean survival time, dose: 100.0 mg/kg/injection, schedule: Q04DX003 (ip), vehicle: saline) was 0 of 3, the survivor count (T/C endpoint: mean survival time, dose: 200.0 mg/kg/injection, schedule: Q04DX003 (ip), vehicle: saline) was 0 of 3 and the survivor count (T/C endpoint: mean survival time, dose: 400.0 mg/kg/injection, schedule: Q04DX003 (ip), vehicle: saline) was 0 of 3.

`Cc1cc(=O)c2ccccc2n1C` was tested, and the survivor count [9] was 0 of 3, the survivor count [10] was 0 of 3 and the survivor count [11] was 0 of 3.
